Record: PubChem BioAssay AID624150 (Cancer Research UK Cambridge, 2012)

Test: 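Which chromatin factors steer differentiation of epidermal stem cells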 (primary screen)
Cell system: primary human epidermal keratinocytes
Knock-down reagent: siRNA pool against human genes, 1-2 µM siRNA in 20 µl nucleofection
Timing: 72 h after transfection plus 48 h differentiation (about 5 days)
Treatment: five arms for 48 h: vehicle, AG1478 10 µM, BMP2/7 200 ng/ml, both together, or 10% serum
Read-out: 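Per-cell amount of a differentiation marker read by infrared scanning of the plate, given as a z-score within each plate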
Direction: z-score, vehicle and z-score, AG1478 10 µM and z-score, BMP2/7 200 ng/ml and z-score, AG1478 with BMP2/7 and z-score, 10% serum: higher = more differentiation marker per cell
Shown is an unselected part of 331 deposited reagents. 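Each arm had three replicate z-scores, but only the first replicate is printed; higher values mean more differentiation marker per cell.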

no.	gene symbol	PubChem SID	z-score, vehicle	z-score, AG1478 10 µM	z-score, BMP2/7 200 ng/ml	z-score, AG1478 with BMP2/7	z-score, 10% serum
1	NFX1	SID135635779	-0.472	-0.184	0.322	-0.117	0.926
2	ING5	SID135635771	2.71	2.39	1.81	1.48	2.29
3	ING1	SID135635793	-1.23	-0.532	-0.315	0.0398	-0.82
4	KAT6A	SID135635678	0.715	-0.464	-0.746	-0.244	-0.671
5	ARID4B	SID135635652	-1.52	-1.17	-0.657	-1.04	-1.57
6	PHRF1	SID135635753	0.749	-0.0983	0.206	0.218	-0.129
7	ASXL1	SID135635769	0.17	-0.663	-0.502	0.016	0.232
8	PRDM15	SID135635834	-0.489	-0.306	-0.511	-0.647	-0.584
9	CBX5	SID135635645	0.723	1.21	0.438	1.01	1.01
10	PHF10	SID135635770	1.05	0.526	-0.1	0.839	0.83
11	MBD4	SID135635720	0.512	0.33	-0.684	0.446	-0.384
12	CBX3	SID135635631	-2.09	-0.644	-1.44	-0.463	-1.53
13	HDAC2	SID135635689	-0.5	-0.52	-0.246	-0.0826	0.0901
14	JMJD8	SID135635697	-0.682	1.15	0.863	0.484	0.348
15	ARID4A	SID135635651	0.896	1.2	1.73	1.38	0.475
16	PRDM7	SID135635860	-1.01	-0.459	-0.618	-0.499	0.0958
17	PRMT3	SID135635814	-0.488	-0.0836	-1.11	-1.02	-0.398
18	BAZ1A	SID135635616	0.761	1.02	-0.0712	0.4	-0.578
19	EP300	SID135635671	1.34	0.47	0.76	1.2	1.03
20	HDGF	SID135635822	-1.14	-1.56	-1.06	-1.17	-0.54

A stretch taken from the entries so far, for reference:
no.	gene symbol	PubChem SID	z-score, vehicle	z-score, AG1478 10 µM	z-score, BMP2/7 200 ng/ml	z-score, AG1478 with BMP2/7	z-score, 10% serum
17	PRMT3	SID135635814	-0.488	-0.0836	-1.11	-1.02	-0.398
18	BAZ1A	SID135635616	0.761	1.02	-0.0712	0.4	-0.578
19	EP300	SID135635671	1.34	0.47	0.76	1.2	1.03
